Test results as given in PMC7197710.
These are yes or no findings as the source states them, for the method shown. Binding seen in cells or lysates may run through a third protein. Some results given as binding are weak or reduced against the parent protein; the word gives no strength.

Molecular target: T1, hepatocyte nuclear factor-4α (HNF4α) (mouse (endogenous in BALB/c lung tissue)) (UniProt P49698)
T1 sequence: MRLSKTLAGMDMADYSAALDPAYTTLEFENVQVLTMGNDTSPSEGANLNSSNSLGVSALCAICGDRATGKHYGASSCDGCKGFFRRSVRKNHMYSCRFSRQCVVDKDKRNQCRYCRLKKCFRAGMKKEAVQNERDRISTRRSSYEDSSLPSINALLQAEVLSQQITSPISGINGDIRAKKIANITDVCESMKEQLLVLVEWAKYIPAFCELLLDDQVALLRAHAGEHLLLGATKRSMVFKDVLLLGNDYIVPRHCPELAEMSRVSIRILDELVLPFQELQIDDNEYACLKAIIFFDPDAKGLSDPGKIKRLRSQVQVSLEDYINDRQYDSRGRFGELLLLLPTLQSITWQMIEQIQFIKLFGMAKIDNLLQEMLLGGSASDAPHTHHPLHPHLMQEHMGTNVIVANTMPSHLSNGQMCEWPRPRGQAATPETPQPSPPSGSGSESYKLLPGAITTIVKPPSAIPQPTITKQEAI
Assay: co-IP; 250 µg nuclear protein from lung tissue of IUGR mice (OVA or PBS induction) incubated overnight at 4°C with 2 µg mouse anti-HNF4α antibody (normal mouse IgG as control), Protein G agarose beads, five washes with 0.1% NP40/PBS; immunoblot with rabbit anti-PGC1α antibody

- binding: binds
B1: peroxisome proliferator activated receptor γ coactivator-1α (PGC1α) (protein, UniProt O70343 1-797)
chain: MAWDMCSQDSVWSDIECAALVGEDQPLCPDLPELDLSELDVNDLDTDSFLGGLKWCSDQSEIISNQYNNEPANIFEKIDEENEANLLAVLTETLDSLPVDEDGLPSFDALTDGAVTTDNEASPSSMPDGTPPPQEAEEPSLLKKLLLAPANTQLSYNECSGLSTQNHAANHTHRIRTNPAIVKTENSWSNKAKSICQQQKPQRRPCSELLKYLTTNDDPPHTKPTENRNSSRDKCASKKKSHTQPQSQHAQAKPTTLSLPLTPESPNDPKGSPFENKTIERTLSVELSGTAGLTPPTTPPHKANQDNPFKASPKLKPSCKTVVPPPTKRARYSECSGTQGSHSTKKGPEQSELYAQLSKSSGLSRGHEERKTKRPSLRLFGDHDYCQSLNSKTDILINISQELQDSRQLDFKDASCDWQGHICSSTDSGQCYLRETLEASKQVSPCSTRKQLQDQEIRAELNKHFGHPCQAVFDDKSDKTSELRDGDFSNEQFSKLPVFINSGLAMDGLFDDSEDESDKLSYPWDGTQPYSLFDVSPSCSSFNSPCRDSVSPPKSLFSQRPQRMRSRSRSFSRHRSCSRSPYSRSRSRSPGSRSSSRSCYYYESSHYRHRTHRNSPLYVRSRSRSPYSRRPRYDSYEAYEHERLKRDEYRKEHEKRESERAKQRERQKQKAIEERRVIYVGKIRPDTTRTELRDRFEVFGEIEECTVNLRDDGDSYGFITYRYTCDAFAALENGYTLRRSNETDFELYFCGRKQFFKSNYADLDTNSDDFDPASTKSKYDSLDFDSLLKEAQRSLRR
